Where a chain is given by its changes, count along the chain named. No constants are given. Whether binding was seen depends on the method and setting. In cells and extracts the contact can be indirect. Some results given as binding are weak or reduced against the parent protein; the word gives no strength. Where a sequence is shown, tags or fusion partners need not be part of it.
Columns and labels:
Assay in all cases: co-IP
[1] = target: T1, GFP-VAMP721 (VESICLE-ASSOCIATED MEMBRANE PROTEIN 721) (Arabidopsis thaliana) (UniProt Q9ZTW3)
T1 sequence: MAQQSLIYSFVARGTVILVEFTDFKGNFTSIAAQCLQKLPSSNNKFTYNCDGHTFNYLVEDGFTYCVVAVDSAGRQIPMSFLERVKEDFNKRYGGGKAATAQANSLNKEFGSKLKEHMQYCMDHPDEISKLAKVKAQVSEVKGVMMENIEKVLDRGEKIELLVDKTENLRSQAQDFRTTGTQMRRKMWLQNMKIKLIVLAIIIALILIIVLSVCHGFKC

[2] = target: T2, GFP-VAMP721^Y57D (Arabidopsis thaliana) (UniProt Q9ZTW3)
T2 sequence: T1 sequence with Y57D

[3] = target: T3, GFP-VAMP723 (Arabidopsis thaliana) (UniProt Q8VY69)
T3 sequence: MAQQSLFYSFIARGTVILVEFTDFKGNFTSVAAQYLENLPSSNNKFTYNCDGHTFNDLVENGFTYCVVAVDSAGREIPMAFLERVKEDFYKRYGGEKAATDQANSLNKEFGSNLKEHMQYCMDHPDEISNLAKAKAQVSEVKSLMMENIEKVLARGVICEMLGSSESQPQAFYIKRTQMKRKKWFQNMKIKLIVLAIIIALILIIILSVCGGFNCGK

binding [1]: binds
binding [2]: binds
binding [3]: no binding
B1: SYP111 (KNOLLE) (protein, UniProt Q42374 1-310)
chain: MNDLMTKSFMSYVDLKKAAMKDMEAGPDFDLEMASTKADKMDENLSSFLEEAEYVKAEMGLISETLARIEQYHEESKGVHKAESVKSLRNKISNEIVSGLRKAKSIKSKLEEMDKANKEIKRLSGTPVYRSRTAVTNGLRKKLKEVMMEFQGLRQKMMSEYKETVERRYFTVTGEHANDEMIEKIITDNAGGEEFLTRAIQEHGKGKVLETVVEIQDRYDAAKEIEKSLLELHQVFLDMAVMVESQGEQMDEIEHHVINASHYVADGANELKTAKSHQRNSRKWMCIGIIVLLLIILIVVIPIITSFSSS
